These are yes or no findings as the source states them, for the method shown. In cells and extracts the contact can be indirect. Binding can be weak; no strength is given.
Target: γTuRC subunit GCP3 (mouse (endogenous in hippocampal cultures)) (UniProt P58854)
Assay: co-IP; 3 DIV or 10 DIV hippocampal cultures lysed (50 mM Tris pH 7.4, 150 mM NaCl, 1 mM MgCl2, 1 mM EGTA, 10% glycerol, 1% Triton X-100); immunoprecipitation with anti-GCP3 antibody overnight or control IgG, Protein G-Sepharose; immunoblot

Chains of the proteins cited; added tags and fusions are not shown. Lines headed by an entry give the natural chain unless they say otherwise; changes in a name come on top.
UniProt P58854: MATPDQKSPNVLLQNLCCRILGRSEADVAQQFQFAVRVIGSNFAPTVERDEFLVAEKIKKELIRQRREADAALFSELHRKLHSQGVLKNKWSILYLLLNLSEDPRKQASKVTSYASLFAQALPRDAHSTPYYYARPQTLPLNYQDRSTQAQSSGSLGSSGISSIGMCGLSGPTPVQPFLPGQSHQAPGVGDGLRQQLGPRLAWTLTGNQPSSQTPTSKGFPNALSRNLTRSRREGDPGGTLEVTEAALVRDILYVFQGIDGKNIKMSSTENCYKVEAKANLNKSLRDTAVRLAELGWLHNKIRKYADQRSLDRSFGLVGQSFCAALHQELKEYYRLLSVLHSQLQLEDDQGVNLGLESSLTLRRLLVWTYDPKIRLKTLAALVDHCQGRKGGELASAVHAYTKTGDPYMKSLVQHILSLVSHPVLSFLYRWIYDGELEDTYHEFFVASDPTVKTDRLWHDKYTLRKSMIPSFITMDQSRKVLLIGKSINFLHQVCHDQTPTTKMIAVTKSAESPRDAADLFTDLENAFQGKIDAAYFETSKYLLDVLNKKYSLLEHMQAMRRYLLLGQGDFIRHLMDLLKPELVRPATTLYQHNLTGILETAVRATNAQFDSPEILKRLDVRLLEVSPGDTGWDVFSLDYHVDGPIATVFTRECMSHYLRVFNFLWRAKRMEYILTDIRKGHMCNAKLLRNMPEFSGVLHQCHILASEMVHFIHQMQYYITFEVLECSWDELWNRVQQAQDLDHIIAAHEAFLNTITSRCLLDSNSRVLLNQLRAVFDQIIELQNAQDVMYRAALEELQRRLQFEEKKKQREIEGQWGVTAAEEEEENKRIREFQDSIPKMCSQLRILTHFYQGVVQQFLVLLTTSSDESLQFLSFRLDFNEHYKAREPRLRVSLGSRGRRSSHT
UniProt Q6NV99: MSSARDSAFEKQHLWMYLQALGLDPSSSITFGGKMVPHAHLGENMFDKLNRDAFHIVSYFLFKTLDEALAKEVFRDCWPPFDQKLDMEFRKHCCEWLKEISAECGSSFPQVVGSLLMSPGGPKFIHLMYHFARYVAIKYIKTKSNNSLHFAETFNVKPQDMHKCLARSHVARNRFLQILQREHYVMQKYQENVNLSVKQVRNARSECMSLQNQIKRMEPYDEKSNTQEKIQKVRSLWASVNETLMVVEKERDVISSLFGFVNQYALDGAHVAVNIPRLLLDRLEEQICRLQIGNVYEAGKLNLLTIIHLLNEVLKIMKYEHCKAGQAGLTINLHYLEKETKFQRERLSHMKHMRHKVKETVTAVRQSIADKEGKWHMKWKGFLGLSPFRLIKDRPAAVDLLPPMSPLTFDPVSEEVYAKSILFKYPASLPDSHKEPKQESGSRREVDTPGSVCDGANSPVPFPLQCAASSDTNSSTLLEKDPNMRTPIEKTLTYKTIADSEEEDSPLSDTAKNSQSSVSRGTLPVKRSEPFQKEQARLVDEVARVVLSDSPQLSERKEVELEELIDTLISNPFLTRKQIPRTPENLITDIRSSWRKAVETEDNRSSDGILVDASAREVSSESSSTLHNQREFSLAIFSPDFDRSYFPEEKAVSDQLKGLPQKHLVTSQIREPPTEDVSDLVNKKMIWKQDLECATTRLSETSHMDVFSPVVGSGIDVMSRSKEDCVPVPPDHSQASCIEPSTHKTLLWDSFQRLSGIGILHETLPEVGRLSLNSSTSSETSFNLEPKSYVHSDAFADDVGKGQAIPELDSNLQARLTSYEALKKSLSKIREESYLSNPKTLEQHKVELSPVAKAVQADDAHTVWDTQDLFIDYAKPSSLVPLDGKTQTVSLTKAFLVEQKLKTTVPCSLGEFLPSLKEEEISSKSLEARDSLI

binding: binds
Substance: augmin subunit HAUS6 (from UniProt Q6NV99)
